The campaign covered roughly 320,000 compounds. About 22,000 (6.9%) were called active. The shares of active, inactive and inconclusive entries below differ from those in the screen. Calls come from the whole dose curve; as a rule, active = well fitted inhibition curve with a large enough effect; inconclusive = small, poorly fitted or top-dose-only effect, or another doubt; inactive = no such curve, though single readings can be large or run the other way. Potencies beside an inconclusive call are fits to weak or partial responses and may not hold up.
Experiment: Primary qHTS for delayed death inhibitors of the malarial parasite plastid, 96 hour incubation
Conditions: P. falciparum luciferase reporter growth; series mostly up to 28.7 µM
How it was run: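 Two parasite generations (96 h, 37 C, 5% CO2) of compound exposure in infected erythrocytes (0.05% parasitemia, 2% hematocrit). Luciferase-reporter P. falciparum; decreased luminescence indicates inhibited growth, aimed at apicoplast-acting delayed death.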
Potency is the fitted concentration of half-maximal effect.

SMILES | Potency
CN(CCc1ccccc1)C1CCCN(S(=O)(=O)c2cccc(F)c2)C1 (centres undefined) | inconclusive: 9.28 µM [inhibitor, single point]
CCOC(=O)N1CCN(C(=O)CSc2nnc(-c3c[nH]c4ccccc34)n2CCOC)CC1 | inactive
CCOc1ccc2nc(NC(=O)CSc3nc4c(c(=O)n(C)c(=O)n4C)n3C(C)C)sc2c1 | active: 11.7 µM
CCOc1ccccc1N1CC(C(=O)N(Cc2nnc(-c3ccccc3Cl)o2)C2CC2)CC1=O (centres undefined) | active: 9.28 µM
COc1ccc(/C=C(\CC(=O)O)c2nc3ccccc3o2)cc1 | inactive
Cc1cccc(C(=O)NNC2=CC(=O)CC(C)(C)C2)c1O | inactive
CC(=O)Oc1ccccc1C(=O)Nc1ncc([N+](=O)[O-])s1 | inconclusive: 15.1 µM [inhibitor, single point]
CC1CCCN(Cc2nc(Cc3ccccc3Cl)no2)C1 (centres undefined) | inconclusive: 11.7 µM [inhibitor, partial curve]
COc1ccc(-c2csc(NC(=O)CCS(=O)(=O)c3ccccc3)n2)c(OC)c1 | inconclusive: 18.5 µM [inhibitor, partial curve, poor fit]
Cc1cc(C)c(N=Cc2c(O)[nH]c(=O)[nH]c2=O)c(C)c1 | active: 3.29 µM
CC(=O)Nc1cccc(NC(=O)c2cc(-c3ccccn3)nc3ccc(Cl)cc23)c1 | inactive
Cc1ccc(S(=O)(=O)N2CN(Cc3ccco3)c3nc4ccccc4nc32)cc1 | inconclusive: 16.5 µM [inhibitor, partial curve, poor fit]
N/C(=N\OS(=O)(=O)c1ccc(Cl)cc1)c1cccnc1 | inconclusive: 18.5 µM [inhibitor, single point]
N#Cc1ccc(C23CC4(C2)[C@H](CN(Cc2ccc(-c5ccccc5)cc2)[C@@H]4c2ccccc2)C3c2ccc(Cl)nc2)cc1 (some centres undefined) | inconclusive: 3.29 µM [inhibitor, single point]
COc1ccc(CCNC(=O)Cn2nnc(C(=O)Nc3cccc(C)c3C)c2N)cc1OC | active: 1.85 µM
O=C(Cc1cccc(C(F)(F)F)c1)NCc1cccc(Cl)c1 | inconclusive: 10.4 µM [inhibitor, single point]
CN(C)c1ccc(/C=N\Nc2ccccn2)cc1 | inactive
O=C(NCCCNc1ccnc2cc(Cl)ccc12)c1ccccc1F | active: 0.415 µM
CCC1CCCCN1S(=O)(=O)c1c(C)n(C)c(=O)n(C)c1=O (centres undefined) | inactive
Cc1cccc(NC(=O)/C(C#N)=C\c2cc(C)n(-c3ccc(C(=O)O)cc3)c2C)c1 | inconclusive: 18.5 µM [inhibitor, single point]
N#CC1=C(N)Oc2cc(N)ccc2C1c1ccc(Cl)cc1 (centres undefined) | inconclusive: 18.5 µM [inhibitor, single point]
Cc1c(NC(=O)COC(=O)C(c2ccc(Cl)cc2)C(C)C)c(=O)n(-c2ccccc2)n1C (centres undefined) | inconclusive: 18.5 µM [inhibitor, single point]
Cc1nc(NC(=O)/C=C/c2ccccc2)sc1C(=O)N1CCCCC1 | inconclusive: 16.5 µM [inhibitor, single point]
COc1ccc(OCC#CCN2CCCCCC2)cc1 | inactive
NC(=O)c1oc2ccccc2c1NC(=O)c1ccco1 | inactive

SMILES | Potency
Oc1[nH]c2ccc(Br)cc2c1N=NC(=S)Nc1ccc(F)cc1 | inconclusive: 1.17 µM [inhibitor, full curve]
C/C(=N\Nc1ccc(C(=O)O)cc1)c1ccc(Br)cc1 | inactive
CNc1cc(Cl)nc(SC)n1 | inconclusive: 1.85 µM [inhibitor, single point]
COc1cccc(CNC(=O)CCl)c1 | active: 10.4 µM
COc1ccc(CN2CCN(Cc3cn(C)nc3-c3ccccc3)CC2CCO)c(C)c1C (centres undefined) | inconclusive: 3.29 µM [inhibitor, partial curve]
COc1ccc(/C=N/NC(=O)CN(CCc2ccccc2)S(=O)(=O)c2ccc(NC(C)=O)cc2)cc1OC | active: 9.28 µM
Cc1ccc(NC(=O)CSc2nnc(CNC(=O)c3ccco3)o2)cc1Cl | inactive
O=C(CSCc1ccc(Cl)cc1)N/N=C/c1ccc(Cl)cc1Cl | inconclusive: 18.5 µM [inhibitor, single point]
C/C=C/c1ccc(OCCCCOc2ccc(OC)cc2)c(OC)c1 | inactive
COc1ccc(OC)c(-c2oc3ccccc3c(=O)c2O)c1 | inconclusive: 18.5 µM [inhibitor, single point]
Cc1nn(C)cc1CN(C)C(=O)c1cc2nc(-c3ccco3)cc(C(F)(F)F)n2n1 | inactive
CC(C)C(=O)NNc1nc2ccccc2s1 | inactive
CC(=O)Nc1ccc(Nc2ncnc3c2cnn3-c2ccccc2)cc1 | inactive
COc1ccc(NC(=O)c2cc(S(=O)(=O)N3CCOCC3)cn2C)cc1Cl | inactive
O=C(O)CC1c2ccccc2CCN1S(=O)(=O)c1ccc(F)cc1 (centres undefined) | inconclusive: 2.62 µM [inhibitor, single point]
Cc1noc(C)c1S(=O)(=O)N1CCN(c2ccc(Cl)cc2)CC1 | inconclusive: 11.7 µM [inhibitor, partial curve, poor fit]
Cc1ccc(CN(Cc2cc3cccc(C)c3[nH]c2=O)C(=S)NCCCN(C)C)cc1 | inactive
O=C(O)C1C2C=CC(C2)C1C(=O)NC1CCS(=O)(=O)C1 (centres undefined) | inactive
CCCOc1ccc(-c2nc(C#N)c(NCC3CCCO3)o2)cc1 (centres undefined) | inconclusive: 18.5 µM [inhibitor, single point]
COc1ccc(N2CCN(Cc3cc(=O)c(OCC(=O)NC4CCCC4)co3)CC2)cc1 | inconclusive: 2.62 µM [inhibitor, full curve, poor fit]
Cc1noc(C)c1CSCC(=O)N(C)CC(=O)Nc1ccc(F)c(F)c1F | inconclusive: 10.4 µM [inhibitor, partial curve, poor fit]
COc1ccc(-c2cc(C(F)(F)F)n3ncc(C(=O)N4CCc5ccccc5C4)c3n2)cc1 | inactive
Cc1[nH]ccc2c1[nH]c1cc(=O)ccc12 | active: 10.4 µM
O=[N+]([O-])c1cccc2ccc(/C=C/c3ccc(Cl)cc3)nc12 | inconclusive: 18.5 µM [inhibitor, single point]
CC(=O)C1=C(C)NC(SCC(=O)c2ccc(Cl)cc2)=C(C#N)C1c1ccco1 (centres undefined) | inconclusive: 18.5 µM [inhibitor, single point]

SMILES | Potency
CC(C)(C)c1cc(NCc2ccccn2)n2ncc(-c3ccccc3)c2n1 | inconclusive: 3.29 µM [inhibitor, partial curve, poor fit]
COC(=O)c1cccc(NC(=O)C2COc3ccccc3O2)c1C (centres undefined) | inactive
O=C1C=C(c2ccc3ccccc3c2)C[C@@H](c2ccc(F)cc2)C1 | inconclusive: 2.62 µM [inhibitor, single point]
COC(=O)c1ccc(C)c(NS(=O)(=O)c2ccc(OC)cc2)c1 | inconclusive: 10.4 µM [inhibitor, single point]
OCCN1CCN(CC(O)COCc2ccc3c(c2)OCO3)CC1 (centres undefined) | inconclusive: 4.15 µM [inhibitor, partial curve, poor fit]
O=C(CSCc1ccco1)Nc1cc(C(F)(F)F)ccc1N1CCOCC1 | inconclusive: 16.5 µM [inhibitor, single point]
O=C1/C(=C\c2ccco2)SC(=S)N1c1ccc(O)cc1 | inactive
Cc1nc(C)c(-c2ccc(SCC(=O)Nc3cccc(F)c3)nn2)s1 | inconclusive: 18.5 µM [inhibitor, single point]
NS(=O)(=O)c1ccc(CNC(=O)c2ccc(NS(=O)(=O)c3ccc4[nH]c(=O)[nH]c4c3)cc2)cc1 | inactive
O=S(=O)(Nc1cccc2c1ccc1cccn12)c1cccs1 | inactive
O=C(NCc1ccccc1F)C(=O)NCC1CCCN1S(=O)(=O)c1cccs1 (centres undefined) | inconclusive: 18.5 µM [inhibitor, single point]
Cc1ccccc1OCC(O)Cn1c(SC(C)C)nc2c1c(=O)[nH]c(=O)n2C (centres undefined) | active: 10.4 µM
OCCC1CN(Cc2cc3c(cc2Cl)OCO3)CCN1C1CCCC1 (centres undefined) | inconclusive: 16.5 µM [inhibitor, single point]
O=C(Nc1ccccc1Cl)c1ccc(S(=O)(=O)N2CCOCC2)cc1 | inconclusive: 20.8 µM [inhibitor, partial curve, poor fit]
CN(C)c1ccc(Nc2cc(Cl)ncn2)cc1 | inconclusive: 18.5 µM [inhibitor, single point]
C=CCCC(=O)N1CCC(n2nccc2NC(=O)c2ccc(OC)cc2)CC1 | active: 11.7 µM
CCCCN1C(=O)/C(=C2\SC(N3CCOCC3)=NC2=O)c2ccccc21 | inactive
CCCCCC(=O)N1CC2(CC(c3cccc(NC(=O)COc4ccc(Cl)cc4)c3)=NO2)C[C@@H]1C(N)=O (some centres undefined) | active: 13.1 µM
Cc1cc(C(=O)CCC(=O)NCC2COc3ccccc3O2)c(C)s1 (centres undefined) | inactive
O=S(=O)(c1cccs1)N1CN(C2CCCCC2)c2nc3ccccc3nc21 | active: 5.22 µM
Cc1nc2ccc(Oc3ccccc3)cc2s1 | inconclusive: 18.5 µM [inhibitor, single point]
CC(C(=O)N1CCCCCC1)N(c1ccc(Cl)cc1)S(C)(=O)=O (centres undefined) | inconclusive: 13.1 µM [inhibitor, partial curve]
COc1cc(CN2CCN(Cc3ccc(C)cc3)C(CCO)C2)ccc1O (centres undefined) | inconclusive: 3.7 µM [inhibitor, partial curve, poor fit]
COc1ccc(-c2csc(NC(=O)CSC(C)C(=O)Nc3cc(C)on3)n2)cc1OC (centres undefined) | inconclusive: 18.5 µM [inhibitor, single point]

Rewritten as a markdown table: part of the list above

| SMILES | Potency |
| --- | --- |
| Cc1noc(C)c1CSCC(=O)N(C)CC(=O)Nc1ccc(F)c(F)c1F | inconclusive: 10.4 µM [inhibitor, partial curve, poor fit] |
| COc1ccc(-c2cc(C(F)(F)F)n3ncc(C(=O)N4CCc5ccccc5C4)c3n2)cc1 | inactive |
| Cc1[nH]ccc2c1[nH]c1cc(=O)ccc12 | active: 10.4 µM |
| O=[N+]([O-])c1cccc2ccc(/C=C/c3ccc(Cl)cc3)nc12 | inconclusive: 18.5 µM [inhibitor, single point] |
| CC(=O)C1=C(C)NC(SCC(=O)c2ccc(Cl)cc2)=C(C#N)C1c1ccco1 (centres undefined) | inconclusive: 18.5 µM [inhibitor, single point] |

Source: PubChem BioAssay AID504834 (National Center for Advancing Translational Sciences (NCATS), 2011)
